PubChem BioAssay AID1259424, University of Nebraska Medical Center – 2018
The deposit covers about 14,000 reagents; shown is a random part of them. 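Higher correlation or smaller distance means closer resemblance to KSR1 loss; control wells, including KSR1 knockdowns, recur on many plates.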 Not stated in the record: the time to read-out.

Purpose: 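Rank knockdowns across the genome by resemblance to the KSR1 depletion profile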 (primary screen)
Cell system: human HCT116 colon cancer cells
Knock-down reagent: siRNA pool against human genes, 50 nM
Detection: 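Six signature mRNAs by branched-DNA multiplex assay, scaled to two housekeeping genes and non-targeting median, log2; matched to mean KSR1 knockdown profile by Pearson correlation and euclidean distance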
Direction: mean correlation with KSR1 profile and KSR1 correlation: higher = expression change more like KSR1 knockdown; mean distance from KSR1 profile: higher = expression change less like KSR1 knockdown

no.	gene	mean correlation with KSR1 profile	mean distance from KSR1 profile	KSR1 correlation, replicate 1	KSR1 correlation, replicate 2	KSR1 correlation, replicate 3
1	SSX1	0.261	4.5	0.374	0.148	0.452
2	ARHGAP5	-0.92	1.73	-0.909	-0.691	-0.989
3	AEBP1	-0.21	2.34	-0.242	-0.321	-0.235
4	DNAJC4	-0.15	1.52	-0.659	-0.0877	0.464
5	MMEL1	0.692	1.19	0.779	0.498	0.331
6	SLC14A2	0.568	0.991	0.555	0.451	0.494
7	SETD1A	-0.127	0.951	-0.158	0.244	-0.198
8	DGKI	0.0324	3.09	-0.161	-0.0319	0.275
9	KLK1	-0.156	1.64	-0.0314	-0.0937	-0.571
10	PANK1	0.501	2.58	0.655	0.611	0.264
11	FLI1	-0.0957	2.27	0.0195	-0.412	-0.539
12	NUBP2	0.587	1.38	0.456	0.529	0.355
13	VAT1	-0.354	2.27	-0.288	-0.521	-0.238
14	PECR	0.755	0.873	0.619	0.795	0.814
15	BIK	-0.0379	1.59	0.0723	-0.0612	-0.538
16	MAN2B1	0.0129	1.68	-0.263	0.233	0.0371
17	HADHB	0.0543	2.49	0.146	-0.174	0.0142
18	CPT1B	0.696	1.25	0.736	0.764	0.523
19	HGD	0.257	2.07	0.303	0.22	0.204
20	IVNS1ABP	-0.0438	6.33	0.04	0.0575	-0.198
21	BANP	0.263	1.89	0.187	0.222	0.246
22	TUBGCP4	-0.0048	3.29	0.114	-0.0709	-0.143
23	THPO	-0.564	3.89	-0.536	-0.474	-0.779
24	BBS7	-0.175	3.34	-0.263	-0.208	-0.0683
25	NDE1	-0.363	2.18	0.0774	-0.169	-0.883
26	TMBIM6	-0.669	3.12	-0.636	-0.565	-0.788
27	KIAA1671	0.0514	2.17	-0.129	0.159	-0.0942
28	TMEM132B	-0.278	2.78	-0.175	-0.205	-0.541
29	NELL1	0.385	1.24	0.502	0.187	0.142
30	KISS1R	0.797	0.979	0.75	0.938	0.536
31	C4orf17	0.858	1.02	0.767	0.878	0.863
32	ACP6	-0.278	2.74	-0.314	0.697	-0.472
33	WBP4	-0.618	1.78	-0.604	-0.599	-0.511
34	POSTN	0.732	0.926	0.758	0.701	0.545

Quoted from above (2 entries):
no.	gene	mean correlation with KSR1 profile	mean distance from KSR1 profile	KSR1 correlation, replicate 1	KSR1 correlation, replicate 2	KSR1 correlation, replicate 3
10	PANK1	0.501	2.58	0.655	0.611	0.264
11	FLI1	-0.0957	2.27	0.0195	-0.412	-0.539
